The values below come from article PMC6171931.

Protein sequences, listed by entry. Tags and fused reporters are not part of them. Lines headed by an entry give the natural chain unless they say otherwise; changes in a name come on top. Residues count along the entry.
HCV NS3, JFH1 (Hepatitis C virus (JFH1)) (Q99IB8, residues 1031-1661): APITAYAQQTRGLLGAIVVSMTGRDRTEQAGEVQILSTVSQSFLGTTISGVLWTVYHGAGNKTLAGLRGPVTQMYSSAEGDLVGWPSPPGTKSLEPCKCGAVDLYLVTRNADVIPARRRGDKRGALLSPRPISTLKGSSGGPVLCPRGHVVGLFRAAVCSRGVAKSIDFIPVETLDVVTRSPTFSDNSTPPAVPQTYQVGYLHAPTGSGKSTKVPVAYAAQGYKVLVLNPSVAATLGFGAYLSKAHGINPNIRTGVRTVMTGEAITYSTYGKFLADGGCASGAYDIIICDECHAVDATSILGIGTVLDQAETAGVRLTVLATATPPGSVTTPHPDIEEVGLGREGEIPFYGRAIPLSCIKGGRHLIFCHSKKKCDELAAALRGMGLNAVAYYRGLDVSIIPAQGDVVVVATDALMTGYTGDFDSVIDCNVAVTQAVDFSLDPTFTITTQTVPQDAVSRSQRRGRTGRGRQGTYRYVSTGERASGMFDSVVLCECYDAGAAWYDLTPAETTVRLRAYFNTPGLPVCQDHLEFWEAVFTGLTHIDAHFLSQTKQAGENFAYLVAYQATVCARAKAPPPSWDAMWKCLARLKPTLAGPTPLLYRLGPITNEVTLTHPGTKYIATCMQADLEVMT
HCV NS4B, JFH1 (Hepatitis C virus (JFH1)) (Q99IB8, residues 1716-1976): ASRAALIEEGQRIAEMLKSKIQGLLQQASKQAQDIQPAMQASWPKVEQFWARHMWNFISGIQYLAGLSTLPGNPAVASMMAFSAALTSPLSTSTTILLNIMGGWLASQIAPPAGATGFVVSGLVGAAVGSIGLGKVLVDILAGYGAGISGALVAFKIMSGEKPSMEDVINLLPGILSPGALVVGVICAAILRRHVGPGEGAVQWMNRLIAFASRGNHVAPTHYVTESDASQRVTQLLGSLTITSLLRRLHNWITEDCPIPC
HCV NS5A, JFH1 (Hepatitis C virus (JFH1)) (Q99IB8, residues 1977-2442): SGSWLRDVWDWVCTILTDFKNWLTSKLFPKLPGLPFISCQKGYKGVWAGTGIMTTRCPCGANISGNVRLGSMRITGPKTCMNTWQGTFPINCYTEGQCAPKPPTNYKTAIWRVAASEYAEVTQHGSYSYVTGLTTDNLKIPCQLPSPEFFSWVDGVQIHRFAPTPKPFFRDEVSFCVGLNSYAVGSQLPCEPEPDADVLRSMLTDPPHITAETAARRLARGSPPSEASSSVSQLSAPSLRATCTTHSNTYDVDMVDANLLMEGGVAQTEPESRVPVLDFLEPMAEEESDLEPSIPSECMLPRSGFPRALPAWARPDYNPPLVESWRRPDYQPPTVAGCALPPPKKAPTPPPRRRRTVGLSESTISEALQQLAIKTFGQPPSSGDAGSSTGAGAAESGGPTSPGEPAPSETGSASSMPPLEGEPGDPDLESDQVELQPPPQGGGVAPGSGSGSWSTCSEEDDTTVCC
UniProt Q9H1Y0: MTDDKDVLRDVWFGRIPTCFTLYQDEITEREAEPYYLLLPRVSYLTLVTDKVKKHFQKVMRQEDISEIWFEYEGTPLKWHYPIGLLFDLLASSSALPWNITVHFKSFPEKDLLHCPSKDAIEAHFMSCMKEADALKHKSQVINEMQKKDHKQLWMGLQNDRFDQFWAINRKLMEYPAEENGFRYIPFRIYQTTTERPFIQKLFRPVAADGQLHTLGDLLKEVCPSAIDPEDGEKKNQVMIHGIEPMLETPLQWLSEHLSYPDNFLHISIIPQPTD
UniProt Q676U5: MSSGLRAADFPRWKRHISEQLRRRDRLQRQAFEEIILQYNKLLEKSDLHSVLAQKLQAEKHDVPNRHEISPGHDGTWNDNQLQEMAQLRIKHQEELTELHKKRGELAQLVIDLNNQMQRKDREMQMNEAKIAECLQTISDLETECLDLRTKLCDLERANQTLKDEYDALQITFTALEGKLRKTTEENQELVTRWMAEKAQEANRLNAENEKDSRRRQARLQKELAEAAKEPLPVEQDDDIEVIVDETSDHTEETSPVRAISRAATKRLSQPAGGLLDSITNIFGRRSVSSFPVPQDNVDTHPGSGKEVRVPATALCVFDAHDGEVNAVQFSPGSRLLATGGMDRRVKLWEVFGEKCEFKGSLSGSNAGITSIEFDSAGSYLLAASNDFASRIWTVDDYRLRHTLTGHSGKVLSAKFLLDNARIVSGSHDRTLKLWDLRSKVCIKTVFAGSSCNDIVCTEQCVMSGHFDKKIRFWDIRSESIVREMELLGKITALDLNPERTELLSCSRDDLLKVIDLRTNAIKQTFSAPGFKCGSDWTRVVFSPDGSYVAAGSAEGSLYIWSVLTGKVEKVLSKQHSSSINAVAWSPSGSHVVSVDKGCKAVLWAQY

No constants are given. Whether binding was seen depends on the method and setting. Binding seen in cells or lysates may run through a third protein. Some binding calls cover weakened binding; strength is not graded here.

Test in all cases: proximity ligation
Assay [1] deals with HCV NS4B, JFH1 (Hepatitis C virus (JFH1)) (UniProt Q99IB8).
Assay [2] concerns the target HCV NS5A, JFH1 (Hepatitis C virus (JFH1)) (UniProt Q99IB8).
Assay [3] has as its target HCV NS3, JFH1 (Hepatitis C virus (JFH1)) (UniProt Q99IB8).

“ATG5-12 conjugate (from UniProt Q9H1Y0 1-275; O94817 1-140) (complex)”: the binding entry in assay [1], in assay [2] and in assay [3] was “binds” throughout.

Regarding ATG16L1 (from UniProt Q676U5 1-607), the binding entry in assay [2] and in assay [3] was “no binding” in each case.
